{"source": "paper PMC8618441", "about": "“From Natural Xanthones to Synthetic C-1 Aminated 3,4-Dioxygenated Xanthones as Optimized Antifouling Agents” (Marine Drugs, 2021)", "note": "“And” between values parts separate entries of the source, which are not always exact repeats. Equal values may be shown once."}
{"tested_on": "Mytilus galloprovincialis plantigrade larvae", "assay": "Toxicity (LC50, therapeutic ratio) toward mussel plantigrade larvae", "assay_type": "in vivo", "settings": "therapeutic ratio LC50 (μM)/EC50 (μM), mussel plantigrades", "method": "For the bioassays, M. galloprovincialis juveniles were collected in intertidal mussel beds during low tides in Memória beach, Matosinhos, Portugal (41°13′59″ N; 8°43′28″ W). Mussel plantigrade larvae (0.5–2 mm) were sorted in a binocular magnifier (Olympus SZX2-ILLT, Tokyo, Japan) and those presenting foot exploring behavior for settlement were selected to the screening bioassays at 50 µM performed in 24-well microplates for 15 h, in the dark at 18 ± 1 °C, according to Almeida et al.. Four well replicates per condition and five competent larvae per well were included. Negative and positive controls were included, namely DMSO (0.1%) and CuSO4 (5 µM) as an efficient antifouling agent. Stock solutions in DMSO (50 mM) were used to prepare test media (50 µM) in filtered seawater (0.1% DMSO). After the exposure period, the anti-settlement bioactivity was determined by the observation of efficiently attached plantigrade larvae considering the existence/absence of produced byssal threads for each test condition.\nData from the anti-settlement screening were analyzed using a one-way analysis of variance (ANOVA), followed by a Dunnett test against the negative control (p < 0.05). […] Therapeutic ratios (LC50/EC50) were used to evaluate the effectiveness versus toxicity of bioactive compounds. […] The mixed model ANOVA was performed on log10(x + 1)-transformed values from 4 biological replicates, employing the software IBM SPSS Statistics (version 21, SPSS Inc., Chicago, IL, USA)."}
{"compound": "COc1cc(C)c2c(=O)c3ccccc3oc2c1OC", "note": "[Compound 1, 3,4-dimethoxy-1-methyl-9H-xanthen-9-one]", "LC50/EC50": ">8.47"}
{"compound": "COc1ccc2c(=O)c3c(C)cc(OC)c(OC)c3oc2c1", "note": "[Compound 2, 3,4,6-trimethoxy-1-methyl-9H-xanthen-9-one]", "LC50/EC50": ">3.69"}
{"compound": "COc1ccc2c(=O)c3c(CCl)cc(OC)c(OC)c3oc2c1", "note": "[Compound 4, 1-(chloromethyl)-3,4,6-trimethoxy-9H-xanthen-9-one]", "LC50/EC50": ">6.19"}
{"compound": "COc1cc(CO)c2c(=O)c3ccccc3oc2c1OC", "note": "[Compound 8, 1-(hydroxymethyl)-3,4-dimethoxy-9H-xanthen-9-one]", "LC50/EC50": ">4.59"}
{"compound": "COc1cc(CNCCN2CCOCC2)c2c(=O)c3ccccc3oc2c1OC", "note": "[Compound 16, 3,4-dimethoxy-1-(((2-morpholinoethyl)amino)methyl)-9H-xanthen-9-one]", "LC50/EC50": ">5.71"}
{"compound": "COc1cc(CN2CCN(CCO)CC2)c2c(=O)c3ccccc3oc2c1OC", "note": "[Compound 19, 1-((4-(2-hydroxyethyl)piperazin-1-yl)methyl)-3,4-dimethoxy-9H-xanthen-9-one]", "LC50/EC50": ">1.86"}
{"compound": "COc1cc(CN2CCc3c(N)cccc3C2)c2c(=O)c3ccccc3oc2c1OC", "note": "[Compound 21, 1-((5-amino-3,4-dihydroisoquinolin-2(1H)-yl)methyl)-3,4-dimethoxy-9H-xanthen-9-one]", "LC50/EC50": ">13.74"}
{"compound": "COc1cc(CN2CCCCC2)c2c(=O)c3ccccc3oc2c1OC", "note": "[Compound 23, 3,4-dimethoxy-1-(piperidin-1-ylmethyl)-9H-xanthen-9-one]", "LC50/EC50": "> 15 and >28.01"}
